Results are given in words; binding and its absence hold for the method and conditions named. A result given as binding can be weak or reduced; the word gives no strength.

In test [1] the target is post-fusion F protein from RSV strain 18537 B (human respiratory syncytial virus subgroup B strain 18537). Kind of test: negative-stain electron microscopy.
The target is the same in test [2]. Kind of test: negative-stain electron microscopy of the complex.

B1: 14N4 fragment antigen-binding region (14N4-Fab) (Fab, V domains shown)
VH: QVQLVESGGGLIQPGGSLRLSCAVSGFTVSSKYMTWVRQAPGKGLEWVSVIYGGGSTYYADSVVGRFTISRDNSKNTLYLQMNSLRAEDTAVYYCASRLGVRATTGDLDYWGQGTLVTVSS
VL: QIVMTQSPSTLSASVGDRVTITCRASQSISSWLAWYQQKPGKAPKLLIYDASSLESGVPSRFSGSGSGTEFTLTISSLQPDDFATYYCQQYNTYSWWTFGQGTKVEIK
Take B1: the binding result in test [1] and in test [2] was “binds” throughout.

The values above are taken from patent US20190240316A1.
